For some of these results: A negative result means that nothing was seen under these conditions. For some of these results: Construct, isoform or probe ends are uncertain for at least one entry.
What was measured:
Assay in all cases: FRET dye-quencher strand displacement by competitor DNA
NF-kB p50 = conditions: 50 nM p50, 20 nM dye, 60 nM quencher, 30 nM competitor strand, also p50 concentration series; 10 mM Tris-HCl, 50 mM NaCl, 3 mM MgCl2, 0.5 mM DTT (Figure 2 legend: 10 mM Tris-HCl, 150 mM NaCl, 2 mM MgCl2); recombinant protein; label: 5' 6-FAM on strand 1, 3' Iowa Black FQ on strand 2
NF-kB p50 + NF-kB p65 = conditions: 25 nM p50 + 25 nM p65 heterodimer, 20 nM dye, 60 nM quencher, 30 nM competitor strand; 10 mM Tris-HCl, 50 mM NaCl, 3 mM MgCl2, 0.5 mM DTT (Figure 2 legend: 10 mM Tris-HCl, 150 mM NaCl, 2 mM MgCl2); recombinant protein; label: 5' 6-FAM on strand 1, 3' Iowa Black FQ on strand 2
NF-kB p65 = conditions: 50 nM p65, 20 nM dye, 60 nM quencher, 30 nM competitor strand; 10 mM Tris-HCl, 50 mM NaCl, 3 mM MgCl2, 0.5 mM DTT (Figure 2 legend: 10 mM Tris-HCl, 150 mM NaCl, 2 mM MgCl2); recombinant protein; label: 5' 6-FAM on strand 1, 3' Iowa Black FQ on strand 2
BSA (bovine) = BSA (bovine) (UniProt P02769); conditions: 5000 nM BSA, 20 nM dye, 60 nM quencher, 30 nM competitor strand; 10 mM Tris-HCl, 50 mM NaCl, 3 mM MgCl2, 0.5 mM DTT (Figure 2 legend: 10 mM Tris-HCl, 150 mM NaCl, 2 mM MgCl2); commercial protein; label: 5' 6-FAM on strand 1, 3' Iowa Black FQ on strand 2

The chains behind the UniProt entries cited, without tags or fusion partners. Residues count along the entry.
UniProt P02769, 25-607: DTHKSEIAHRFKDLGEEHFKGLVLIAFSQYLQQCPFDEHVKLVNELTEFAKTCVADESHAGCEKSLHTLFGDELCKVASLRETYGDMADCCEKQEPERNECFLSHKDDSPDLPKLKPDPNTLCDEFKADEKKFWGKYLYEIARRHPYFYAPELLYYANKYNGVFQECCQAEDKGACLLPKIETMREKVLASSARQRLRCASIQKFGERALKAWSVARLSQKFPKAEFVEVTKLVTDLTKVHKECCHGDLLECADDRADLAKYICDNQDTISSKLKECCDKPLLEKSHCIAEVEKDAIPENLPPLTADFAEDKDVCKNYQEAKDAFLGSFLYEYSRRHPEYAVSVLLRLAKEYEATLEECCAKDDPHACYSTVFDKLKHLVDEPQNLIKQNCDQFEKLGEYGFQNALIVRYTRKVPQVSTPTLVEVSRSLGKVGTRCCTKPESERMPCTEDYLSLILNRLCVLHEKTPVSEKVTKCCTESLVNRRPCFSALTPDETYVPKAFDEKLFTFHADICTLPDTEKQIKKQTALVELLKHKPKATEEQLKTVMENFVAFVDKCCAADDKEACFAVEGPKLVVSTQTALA

TTGGGACTTTCCCAAGATAGTAAG / CTTGGGAAAGTCCCAA [Ig-kB dye-quencher probe]
binding result (NF-kB p50): binds
binding result (NF-kB p50 + NF-kB p65): binds
binding result (NF-kB p65): binds
binding result (BSA (bovine)): no binding
